Source: PubChem BioAssay AID2685 (National Center for Advancing Translational Sciences (NCATS), 2010)
The other results are listed elsewhere or left out. Shown are side measurements of this screen, not its main read-out; they come without a call. Compounds called inactive in the main read-out are mostly missing here. Potencies come from curve fits of mixed quality, noted in brackets.

Test: qHTS Assay for Lipid Storage Modulators in Drosophila S3 Cells;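 on cell number change: cells counted by Cell Tracker Red CMTPX staining in the red channel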
Details: BODIPY lipid droplet fluorescence, 18-24 h; for cell number change: measured here: cell count max response, cells fed with added oleic acid
Method in brief: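 Laser-scanning cytometry quantifies lipid droplet accumulation (500–530 nm total intensity; droplet/cell object ratio) in oleic acid-fed (400 uM added) Drosophila S3 cells treated with a concentration series. 20 uM Triacsin C defined 100% inhibition.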

[1] = measured here: cell number channel AC50, cells fed with added oleic acid
[2] = measured here: lipid fluorescence (Fed channel) AC50, cells fed with added oleic acid

SMILES | cell number change | AC50 [1] | AC50 [2]
COc1ccc(C(=O)c2sc(Nc3ccccc3)nc2N)cc1 | -34.1% | 23.1 µM [falling, single point] | 20.6 µM [falling, single point]
Cc1ccc(CNC(=O)C2CC(=O)N(C3CCCC3)C2)cc1 (configuration not stated) | -45.5% | 0.00517 µM [falling, full curve, poor fit] | 2.59 µM [falling, full curve]
COc1ccccc1C(=O)Nc1ccc(Br)c2cccnc12 | – | – | 20.6 µM [falling, partial curve]
COc1ccc(CN2CCOCC2)cc1OC | -33.9% | 4.61 µM [falling, full curve, poor fit] | –
CC(=O)c1cccc(NC(=O)c2cc(-n3cnnc3)ccc2Cl)c1 | 2.05% | – | 6.51 µM [falling, partial curve, poor fit]
O=C(Cc1ccccc1)NC(=S)Nc1ccc(N2CCCCC2)cc1 | -8.22% | – | 2.06 µM [falling, partial curve]
O=C(CN1C(=O)C2C3CCC(C3)C2C1=O)OCC(=O)c1ccc(Br)cc1 (configuration not stated) | 4.62% | – | 11.6 µM [rising, single point]
CC(=O)Nc1ccc(NC(=O)C2CCCN2C(=O)Nc2ccc(F)c([N+](=O)[O-])c2)cc1 (configuration not stated) | -46.1% | 4.61 µM [falling, full curve] | 5.17 µM [falling, full curve]
CCNS(=O)(=O)c1c(C)cc(N2CCCC2=O)cc1C | – | – | 0.231 µM [falling, full curve]
CCOC(=O)C1(Cc2ccccc2)CCN(Cc2ccc(C)s2)CC1 | -23.4% | – | 16.4 µM [falling, single point]
COc1cc(C(=O)N2c3ccccc3CCC2C)cc(OC)c1OC (configuration not stated) | -2.19% | – | 6.51 µM [rising, single point]
NCCCC[C@H]1NC(=O)[C@H](CCC(=O)O)NC(=O)c2cc([N+](=O)[O-])cc(I)c2OCC[C@@H](C(N)=O)NC1=O | 44% | 29.1 µM [rising, single point] | 0.00461 µM [falling, full curve, poor fit]
CC1(C)CC(=O)C2=C(C1)OC(N)=C([N+](=O)[O-])C2c1cccs1 (configuration not stated) | -33.5% | 32.6 µM [falling, partial curve, poor fit] | 0.00461 µM [falling, full curve, poor fit]
COC(=O)C1=C(CSc2nc3ccccc3s2)NC(=O)NC1c1ccc(F)cc1 (configuration not stated) | 8.12% | – | 0.461 µM [rising, single point]
O=C(O)c1ccccc1CSC1=NCCS1 | -14.3% | – | 29.1 µM [falling, single point]
O=C(NCc1ccc(F)cc1)C(=O)c1cn(CC(=O)N2CCCC2)c2ccccc12 | -1.89% | – | 16.4 µM [falling, partial curve, poor fit]
Cc1cc(Cl)c(OCCCN2CCCCC2)c(Br)c1 | 16.7% | 2.31 µM [falling, partial curve, poor fit] | –
CCCC(=O)Nc1c(-c2cccc(C)c2)c(=O)c2ccccc2n1C | -18.4% | – | 7.31 µM [falling, partial curve]
O=C1C(Cl)=C(NCC2CCCO2)C(=O)N1c1cccc(Cl)c1Cl (configuration not stated) | -31.2% | – | –

SMILES | cell number change | AC50 [1] | AC50 [2]
COc1ccc(S(=O)(=O)N2CCCCC2)cc1NC(=O)Cc1cccs1 | 32.3% | 0.731 µM [rising, full curve] | –
CCCCn1c(N)c(N(CCC(C)C)C(=O)C2CCN(C(=O)c3ccccc3C)CC2)c(=O)[nH]c1=O | -61% | 29.1 µM [falling, single point] | –
Cc1ccc(CN2CCc3c(OCC(=O)Nc4cccc(C)c4C)cccc3C2=O)cc1 | -16.3% | – | 2.31 µM [falling, partial curve]
COC(=O)Cn1c(=NC(=O)c2ccc(S(=O)(=O)N3CCOCC3)cc2)sc2cc(S(N)(=O)=O)ccc21 | -7.76% | – | 29.1 µM [falling, single point]
CN1C(=O)/C(=C/c2ccccc2OCc2ccc(F)cc2)N(C)C1=S | 11.8% | 0.00731 µM [rising, full curve, poor fit] | 8.2 µM [rising, partial curve, poor fit]
Cc1c(C(=O)O)oc2c1/C(=N\O)CC(C)(C)C2 | 49.8% | 3.66 µM [rising, full curve] | 0.366 µM [falling, partial curve, poor fit]
Cn1cc(/C=C(\C#N)C(=O)Nc2ccccc2O)c2ccccc21 | -12.3% | – | 29.1 µM [falling, single point]
CN(C)S(=O)(=O)NCCNC(=O)c1cc(OCC(F)(F)F)ccc1OCC(F)(F)F | 27.4% | – | 11.6 µM [rising, partial curve]
COc1nc(OC)nc(N2CCC(C(=O)NCc3ccco3)CC2)n1 | – | 2.59 µM [rising, single point] | –
Cc1cccc(-n2ncc3c2CCCC3NC(=O)CCCN2CCCCC2=O)c1C (configuration not stated) | -33.8% | 23.1 µM [falling, single point] | –
CCc1nnc(NC(=O)c2ccncc2)s1 | 3.48% | – | –
O=C(Nc1ccc(F)cc1)c1cccc2c1C(=O)N(CC1CCCO1)C2 (configuration not stated) | 0.865% | – | 0.517 µM [rising, single point]
O=C(CSc1nnc(-c2ccco2)o1)c1ccc[nH]1 | 32.7% | 16.4 µM [rising, single point] | –
COc1ccc(NC(=O)CSc2nc3[nH]c(=O)cc(O)c3s2)cc1OC | 14.9% | 0.291 µM [rising, full curve, poor fit] | –
COc1cc(C(=O)Nc2nc(-c3ccc(C)cc3)cs2)ccc1OCC(=O)N1CCOCC1 | 2.4% | 4.61 µM [falling, single point] | –
COc1cccc2sc(N(C)c3ccccc3)nc12 | -8.5% | – | 0.146 µM [falling, full curve]
CCc1cc(-c2[nH]ncc2-c2ccc(OC)cc2)c(O)cc1O | -41.7% | 29.1 µM [falling, single point] | –
O=C(Nc1ccccc1Cl)N1CCSc2ccccc21 | -40.1% | 3.66 µM [falling, full curve] | 8.2 µM [falling, partial curve]
N#Cc1nc(COc2ccc(Cl)cc2)oc1NCc1ccc2c(c1)OCO2 | 194% | 5.8 µM [rising, partial curve] | 20.6 µM [rising, partial curve]

SMILES | cell number change | AC50 [1] | AC50 [2]
c1ccc2c(c1)ccc1nnc(SCc3ccc4c(c3)OCCO4)n12 | -36.2% | 29.1 µM [falling, single point] | 29.1 µM [falling, single point]
Cc1ccsc1-c1n[nH]c(=S)n1C1CCCCC1 | -10.1% | – | 25.9 µM [falling, single point]
COc1ccc(N=N/C(=C\O)C(=O)c2cccs2)cc1 | -23.9% | – | 0.82 µM [falling, full curve, poor fit]
COc1ccc(S(=O)(=O)NC(C)C(=O)Nc2cccc(C(C)=O)c2)cc1 (configuration not stated) | 135% | 29.1 µM [rising, single point] | –
O=C(N/N=C/c1cccc(O)c1)c1ccc(-n2cnnn2)cc1 | 7.5% | – | –
Oc1c(C(c2ccco2)N2CCN(C(c3ccccc3)c3ccccc3)CC2)sc2ncnn12 (configuration not stated) | -3.44% | – | 3.66 µM [falling, partial curve]
O=C(Nc1cccc(Cl)c1)N(Cc1nc2ccccc2c(=O)[nH]1)C1CCCC1 | 18.5% | 0.259 µM [rising, full curve, poor fit] | –
Cc1ccc(NC(=O)OCCN2CCN(Cc3ccccc3)CCC2=O)cc1C | 4.64% | – | 3.66 µM [rising, full curve]
Cc1ccc(NC(=O)CSc2nnc(-c3cccnc3)n2CCN2CCCCC2)cc1 | 16.6% | – | 29.1 µM [rising, single point]
CCN(C(=O)COC(=O)C1=COCCO1)c1ccccc1 | 1.52% | – | 7.31 µM [rising, partial curve, poor fit]
Cc1cccc(Oc2cnn(C(C)(C)C)c(=O)c2Cl)c1 | -40.8% | 16.4 µM [falling, single point] | 16.4 µM [falling, single point]
CCOC(=O)C1(CCc2ccccc2)CCN(C(=O)[C@@H]2C[C@@H](C)NC(=S)N2)CC1 | 1.06% | – | 1.3 µM [rising, full curve]
COc1ccc(CNc2ccc(Br)cc2)cc1 | -21.6% | – | 29.1 µM [falling, single point]
COc1ccc(C(=O)Nc2ccc(N3CCCCC3)cc2)cc1Br | – | 0.00411 µM [rising, full curve, poor fit] | –
CCN(CC)S(=O)(=O)c1ccc(Cl)c(C(=O)Oc2cccc(-c3cnc4ccccc4n3)c2)c1 | – | 1.84 µM [falling, partial curve, poor fit] | 23.1 µM [falling, partial curve]
N#CC1=C(N)NC(SCc2ccc(F)cc2)=C(C#N)C12CCCCC2 | – | 0.231 µM [rising, full curve] | 0.259 µM [rising, full curve]
CCCCC(=O)Nc1sc2c(c1C(=O)OCC)CCC(C=O)=C2Cl | 56.5% | 29.1 µM [rising, single point] | –
O=S(=O)(c1cc(-c2nc3ccccc3s2)ccc1Cl)N1CCOCC1 | -15.4% | – | 6.51 µM [falling, single point]
COc1ccc(NC(=O)NC(C)(C(F)(F)F)C(F)(F)F)cc1 | – | – | 29.1 µM [rising, single point]

Ordered by count of non-hydrogen atoms (smallest number first): part of the list above.
SMILES | cell number change | AC50 [1] | AC50 [2]
COc1ccc(CNc2ccc(Br)cc2)cc1 | -21.6% | – | 29.1 µM [falling, single point]
COc1ccc(C(=O)c2sc(Nc3ccccc3)nc2N)cc1 | -34.1% | 23.1 µM [falling, single point] | 20.6 µM [falling, single point]
COc1cc(C(=O)N2c3ccccc3CCC2C)cc(OC)c1OC (configuration not stated) | -2.19% | – | 6.51 µM [rising, single point]
N#Cc1nc(COc2ccc(Cl)cc2)oc1NCc1ccc2c(c1)OCO2 | 194% | 5.8 µM [rising, partial curve] | 20.6 µM [rising, partial curve]
CCN(CC)S(=O)(=O)c1ccc(Cl)c(C(=O)Oc2cccc(-c3cnc4ccccc4n3)c2)c1 | – | 1.84 µM [falling, partial curve, poor fit] | 23.1 µM [falling, partial curve]
